The supplement of paper PMC7666118
The list shows a part of the results.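 The calls were made as follows: active = dose-dependent thermal stabilisation significant by F-test of dose-response against flat model at 10% FDR; inactive = not significant.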

Sequences of proteins named here, by UniProt entry; tags and fusion partners are left off. A change or cut given only in a name is not applied to a line headed by its entry.
UniProt Q8IZT6: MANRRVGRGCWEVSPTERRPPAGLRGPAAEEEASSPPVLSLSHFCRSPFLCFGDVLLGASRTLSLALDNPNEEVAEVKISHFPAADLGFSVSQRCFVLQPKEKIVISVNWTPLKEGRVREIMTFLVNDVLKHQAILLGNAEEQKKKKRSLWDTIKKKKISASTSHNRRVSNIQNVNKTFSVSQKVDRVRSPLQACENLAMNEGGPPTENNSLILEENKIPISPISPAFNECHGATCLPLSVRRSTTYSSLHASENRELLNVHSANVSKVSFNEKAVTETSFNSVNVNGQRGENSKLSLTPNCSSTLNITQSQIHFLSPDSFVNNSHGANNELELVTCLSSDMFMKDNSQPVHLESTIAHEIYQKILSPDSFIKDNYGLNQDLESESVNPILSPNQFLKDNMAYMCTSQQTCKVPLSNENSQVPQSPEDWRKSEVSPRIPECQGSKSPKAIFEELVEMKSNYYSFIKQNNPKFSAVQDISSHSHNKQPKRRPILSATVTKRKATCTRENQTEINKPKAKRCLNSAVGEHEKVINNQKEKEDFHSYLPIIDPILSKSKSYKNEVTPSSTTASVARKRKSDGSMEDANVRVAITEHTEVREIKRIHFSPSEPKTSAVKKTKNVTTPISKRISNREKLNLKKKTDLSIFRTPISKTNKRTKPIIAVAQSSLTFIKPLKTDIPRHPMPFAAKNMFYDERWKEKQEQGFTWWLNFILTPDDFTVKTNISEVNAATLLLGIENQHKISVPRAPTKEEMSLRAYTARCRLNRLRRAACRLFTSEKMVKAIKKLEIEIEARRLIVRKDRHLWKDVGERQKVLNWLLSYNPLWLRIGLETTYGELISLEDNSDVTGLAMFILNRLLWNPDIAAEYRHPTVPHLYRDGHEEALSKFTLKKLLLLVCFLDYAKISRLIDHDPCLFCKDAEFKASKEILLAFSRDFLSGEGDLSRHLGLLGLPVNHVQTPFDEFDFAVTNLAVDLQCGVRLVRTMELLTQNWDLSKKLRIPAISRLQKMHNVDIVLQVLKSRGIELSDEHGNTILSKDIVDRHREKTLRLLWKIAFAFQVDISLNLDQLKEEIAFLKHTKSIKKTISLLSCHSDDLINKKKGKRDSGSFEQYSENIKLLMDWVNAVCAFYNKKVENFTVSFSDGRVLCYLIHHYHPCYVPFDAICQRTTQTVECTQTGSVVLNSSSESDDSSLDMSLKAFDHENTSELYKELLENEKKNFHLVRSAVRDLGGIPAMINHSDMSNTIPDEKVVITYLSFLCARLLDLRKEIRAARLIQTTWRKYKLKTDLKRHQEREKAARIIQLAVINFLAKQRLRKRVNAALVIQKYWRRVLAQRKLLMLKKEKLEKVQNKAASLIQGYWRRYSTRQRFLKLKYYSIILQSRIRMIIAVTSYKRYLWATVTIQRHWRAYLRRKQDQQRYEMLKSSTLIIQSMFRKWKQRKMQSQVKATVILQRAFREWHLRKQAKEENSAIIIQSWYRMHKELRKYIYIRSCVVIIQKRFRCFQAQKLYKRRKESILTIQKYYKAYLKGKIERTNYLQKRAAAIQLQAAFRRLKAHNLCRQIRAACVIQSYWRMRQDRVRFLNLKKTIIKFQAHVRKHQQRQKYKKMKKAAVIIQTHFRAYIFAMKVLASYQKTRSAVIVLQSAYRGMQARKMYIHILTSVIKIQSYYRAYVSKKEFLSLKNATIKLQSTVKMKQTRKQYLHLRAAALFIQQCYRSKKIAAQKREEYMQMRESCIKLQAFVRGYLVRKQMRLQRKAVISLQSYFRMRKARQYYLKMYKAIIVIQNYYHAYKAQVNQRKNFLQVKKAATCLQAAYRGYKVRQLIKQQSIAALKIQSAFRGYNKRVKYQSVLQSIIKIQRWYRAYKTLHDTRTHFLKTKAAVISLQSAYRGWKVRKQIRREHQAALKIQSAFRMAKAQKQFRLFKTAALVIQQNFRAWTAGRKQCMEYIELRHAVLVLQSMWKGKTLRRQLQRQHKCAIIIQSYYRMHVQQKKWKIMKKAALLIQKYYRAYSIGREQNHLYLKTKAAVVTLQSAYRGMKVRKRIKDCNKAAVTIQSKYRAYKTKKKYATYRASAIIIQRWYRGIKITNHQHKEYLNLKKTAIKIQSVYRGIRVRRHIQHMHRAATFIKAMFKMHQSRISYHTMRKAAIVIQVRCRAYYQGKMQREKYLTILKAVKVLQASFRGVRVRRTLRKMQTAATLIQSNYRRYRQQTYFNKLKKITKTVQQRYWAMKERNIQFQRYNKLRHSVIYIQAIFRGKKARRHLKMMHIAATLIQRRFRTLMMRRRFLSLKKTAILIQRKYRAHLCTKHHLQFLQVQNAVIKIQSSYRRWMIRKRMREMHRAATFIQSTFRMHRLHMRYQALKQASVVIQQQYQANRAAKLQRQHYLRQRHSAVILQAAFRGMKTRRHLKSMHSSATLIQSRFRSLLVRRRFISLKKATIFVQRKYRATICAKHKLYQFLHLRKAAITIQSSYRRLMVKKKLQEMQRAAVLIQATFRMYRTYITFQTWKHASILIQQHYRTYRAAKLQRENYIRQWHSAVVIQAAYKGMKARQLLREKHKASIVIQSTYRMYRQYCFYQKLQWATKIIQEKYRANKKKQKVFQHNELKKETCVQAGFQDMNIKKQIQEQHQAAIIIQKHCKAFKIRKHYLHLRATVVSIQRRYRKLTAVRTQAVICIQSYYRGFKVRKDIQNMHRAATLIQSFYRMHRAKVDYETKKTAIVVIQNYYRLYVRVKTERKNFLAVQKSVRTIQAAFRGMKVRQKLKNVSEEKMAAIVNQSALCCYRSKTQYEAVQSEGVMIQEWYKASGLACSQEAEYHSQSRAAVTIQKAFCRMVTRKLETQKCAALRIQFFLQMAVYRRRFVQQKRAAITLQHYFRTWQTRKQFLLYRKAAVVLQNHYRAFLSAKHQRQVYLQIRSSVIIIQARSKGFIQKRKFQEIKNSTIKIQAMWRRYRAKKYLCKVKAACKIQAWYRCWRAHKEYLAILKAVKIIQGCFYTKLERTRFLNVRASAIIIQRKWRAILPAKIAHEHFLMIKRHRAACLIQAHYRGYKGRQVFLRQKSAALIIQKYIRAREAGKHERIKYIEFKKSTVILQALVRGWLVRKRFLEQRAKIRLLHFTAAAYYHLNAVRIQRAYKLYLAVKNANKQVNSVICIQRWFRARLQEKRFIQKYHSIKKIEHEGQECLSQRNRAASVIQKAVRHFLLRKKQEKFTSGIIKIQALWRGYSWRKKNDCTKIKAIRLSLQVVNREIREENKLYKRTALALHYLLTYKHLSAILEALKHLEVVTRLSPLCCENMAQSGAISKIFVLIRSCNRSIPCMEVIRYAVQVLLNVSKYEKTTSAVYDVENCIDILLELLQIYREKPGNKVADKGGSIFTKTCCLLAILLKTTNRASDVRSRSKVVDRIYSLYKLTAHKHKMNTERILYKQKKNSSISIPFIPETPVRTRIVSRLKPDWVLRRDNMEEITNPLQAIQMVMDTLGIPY
UniProt O00244: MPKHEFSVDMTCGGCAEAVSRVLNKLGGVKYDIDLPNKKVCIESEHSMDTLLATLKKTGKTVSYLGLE
UniProt O75934: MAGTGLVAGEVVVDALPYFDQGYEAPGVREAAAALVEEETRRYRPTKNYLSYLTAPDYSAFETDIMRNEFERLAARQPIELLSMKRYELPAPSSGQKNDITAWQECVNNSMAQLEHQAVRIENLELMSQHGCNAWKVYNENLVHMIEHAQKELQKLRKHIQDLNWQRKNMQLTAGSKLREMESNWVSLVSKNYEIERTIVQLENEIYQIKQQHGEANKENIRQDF
UniProt Q8IU85: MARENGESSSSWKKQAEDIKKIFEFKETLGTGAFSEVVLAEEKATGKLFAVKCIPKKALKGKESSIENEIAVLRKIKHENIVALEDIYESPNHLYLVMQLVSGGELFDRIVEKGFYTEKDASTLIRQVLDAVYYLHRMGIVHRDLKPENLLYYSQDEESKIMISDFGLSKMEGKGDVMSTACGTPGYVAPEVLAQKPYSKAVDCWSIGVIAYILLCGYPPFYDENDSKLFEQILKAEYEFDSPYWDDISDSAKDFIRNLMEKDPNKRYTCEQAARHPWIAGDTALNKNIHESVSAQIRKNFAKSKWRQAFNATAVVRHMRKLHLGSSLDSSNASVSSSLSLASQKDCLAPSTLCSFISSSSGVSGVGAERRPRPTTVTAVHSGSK
UniProt Q07817, whole entry: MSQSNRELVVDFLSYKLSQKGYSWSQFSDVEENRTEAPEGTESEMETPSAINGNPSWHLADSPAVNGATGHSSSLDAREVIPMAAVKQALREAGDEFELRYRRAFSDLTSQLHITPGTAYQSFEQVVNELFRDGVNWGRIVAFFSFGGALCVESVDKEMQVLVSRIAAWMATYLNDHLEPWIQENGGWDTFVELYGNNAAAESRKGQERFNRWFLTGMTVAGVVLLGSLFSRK
UniProt Q8WUQ7: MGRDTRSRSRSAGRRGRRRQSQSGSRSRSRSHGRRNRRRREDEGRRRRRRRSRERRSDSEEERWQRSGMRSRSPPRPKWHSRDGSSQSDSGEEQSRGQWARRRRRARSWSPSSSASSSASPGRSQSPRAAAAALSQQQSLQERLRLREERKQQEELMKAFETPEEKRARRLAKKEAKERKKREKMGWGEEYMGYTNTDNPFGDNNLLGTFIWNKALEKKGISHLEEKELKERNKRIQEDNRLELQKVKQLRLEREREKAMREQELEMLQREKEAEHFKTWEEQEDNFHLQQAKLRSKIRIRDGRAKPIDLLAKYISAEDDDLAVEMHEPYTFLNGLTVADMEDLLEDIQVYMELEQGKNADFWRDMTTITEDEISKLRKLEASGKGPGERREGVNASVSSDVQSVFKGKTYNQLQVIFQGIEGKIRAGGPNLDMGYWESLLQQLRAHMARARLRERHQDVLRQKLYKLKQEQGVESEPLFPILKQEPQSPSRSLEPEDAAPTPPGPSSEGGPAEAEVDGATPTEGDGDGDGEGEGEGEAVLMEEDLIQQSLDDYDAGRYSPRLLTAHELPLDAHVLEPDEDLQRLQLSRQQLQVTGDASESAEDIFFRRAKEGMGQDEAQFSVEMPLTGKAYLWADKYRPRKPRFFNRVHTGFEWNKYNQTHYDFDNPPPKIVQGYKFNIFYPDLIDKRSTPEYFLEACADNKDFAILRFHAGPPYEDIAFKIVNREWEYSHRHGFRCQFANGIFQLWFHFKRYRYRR
UniProt L0R819, whole entry: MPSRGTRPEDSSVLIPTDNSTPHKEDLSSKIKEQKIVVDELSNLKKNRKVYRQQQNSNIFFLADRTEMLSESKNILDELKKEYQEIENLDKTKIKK
UniProt Q14CW9: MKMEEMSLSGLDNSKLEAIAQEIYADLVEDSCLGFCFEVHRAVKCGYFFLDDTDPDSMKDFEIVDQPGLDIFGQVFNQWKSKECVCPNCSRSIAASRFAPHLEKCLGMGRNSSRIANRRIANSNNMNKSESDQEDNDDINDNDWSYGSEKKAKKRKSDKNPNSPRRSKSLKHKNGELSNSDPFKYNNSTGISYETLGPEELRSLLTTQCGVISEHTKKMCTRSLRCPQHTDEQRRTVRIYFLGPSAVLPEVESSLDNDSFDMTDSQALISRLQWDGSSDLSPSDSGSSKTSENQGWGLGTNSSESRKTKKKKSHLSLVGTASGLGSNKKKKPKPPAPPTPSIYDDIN
UniProt Q96K31: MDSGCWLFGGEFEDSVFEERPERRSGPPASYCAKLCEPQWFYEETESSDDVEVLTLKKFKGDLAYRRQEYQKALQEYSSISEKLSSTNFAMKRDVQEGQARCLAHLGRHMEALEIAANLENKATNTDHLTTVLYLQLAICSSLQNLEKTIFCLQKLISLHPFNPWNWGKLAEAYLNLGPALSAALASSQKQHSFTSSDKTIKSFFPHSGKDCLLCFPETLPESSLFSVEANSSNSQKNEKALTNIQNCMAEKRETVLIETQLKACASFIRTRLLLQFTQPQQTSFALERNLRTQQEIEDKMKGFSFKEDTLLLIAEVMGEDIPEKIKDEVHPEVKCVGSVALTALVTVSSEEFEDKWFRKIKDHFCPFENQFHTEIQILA
UniProt P17544: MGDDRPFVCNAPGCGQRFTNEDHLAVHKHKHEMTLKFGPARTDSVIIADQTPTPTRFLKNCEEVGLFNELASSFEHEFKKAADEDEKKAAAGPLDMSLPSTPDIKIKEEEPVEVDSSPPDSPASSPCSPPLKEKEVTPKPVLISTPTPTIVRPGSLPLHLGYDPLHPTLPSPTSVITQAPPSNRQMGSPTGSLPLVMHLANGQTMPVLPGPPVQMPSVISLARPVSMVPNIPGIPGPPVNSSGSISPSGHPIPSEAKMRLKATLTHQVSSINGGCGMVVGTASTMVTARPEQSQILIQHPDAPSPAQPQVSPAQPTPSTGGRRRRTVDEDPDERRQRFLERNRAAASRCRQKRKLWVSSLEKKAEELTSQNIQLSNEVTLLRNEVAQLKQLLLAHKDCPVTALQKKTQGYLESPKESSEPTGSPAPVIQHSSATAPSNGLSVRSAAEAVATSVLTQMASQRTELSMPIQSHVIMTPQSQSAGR

The targets below were run with Nc1nc2c(ncn2[C@@H]2O[C@H](COP(=O)(O)OP(=O)(O)OP(=O)(O)O)[C@@H](O)[C@H]2O)c(=O)[nH]1 (assay: dose-dependent thermal stabilisation call (2D-TPP, DLPTP, 10% FDR) (binary (1 = stabilised)); higher = stabilised by the compound). Settings: system: Jurkat gel-filtered lysate; concentration range 1-500 µM.
Protocol: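 2D thermal proteome profiling in gel-filtered Jurkat E6.1 lysate (2 mg/ml) treated with NaGTP (0, 1, 10, 100, 500 uM) for 10 min at room temperature, then heated 3 min at one of 12 temperatures (42-63.9 C). Soluble protein was quantified by TMT10 MS. The value is the DLPTP call of the paper: dose-dependent thermal stabilisation over all temperatures at 10% FDR (F-test of a dose-response against a flat model); one experiment, one call per tested protein.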

| Target | dose-dependent thermal stabilisation call |
| --- | --- |
| CAD (UniProt P27708) | inactive: 0 |
| BCAT1 (UniProt P54687) | active: 1 |
| ATG2A (UniProt Q2TAZ0) | inactive: 0 |
| BAZ1A (UniProt Q9NRL2) | inactive: 0 |
| BAG1 (UniProt Q99933) | inactive: 0 |
| ARHGEF6 (UniProt Q15052) | inactive: 0 |
| BPTF (UniProt Q12830) | inactive: 0 |
| ATXN3 (UniProt P54252) | inactive: 0 |
| ASXL2 (UniProt Q76L83) | inactive: 0 |
| ARPC3 (UniProt O15145) | inactive: 0 |
| ASPM (UniProt Q8IZT6) | inactive: 0 |
| ATOX1 (UniProt O00244) | inactive: 0 |
| ARID2 (UniProt Q68CP9) | inactive: 0 |
| ATP6V1B2 (UniProt P21281) | inactive: 0 |
| CAND2 (UniProt O75155) | inactive: 0 |
| ASNS (UniProt P08243) | active: 1 |
| BCAS2 (UniProt O75934) | inactive: 0 |
| CAMK1D (UniProt Q8IU85) | inactive: 0 |
| CADM4 (UniProt Q8NFZ8) | inactive: 0 |
| BCL2L1 (UniProt Q07817) | inactive: 0 |

| Target | dose-dependent thermal stabilisation call |
| --- | --- |
| ASRGL1 (UniProt Q7L266) | inactive: 0 |
| CACTIN (UniProt Q8WUQ7) | active: 1 |
| ARPC1A (UniProt Q92747) | active: 1 |
| ATG7 (UniProt O95352) | active: 1 |
| ARHGAP30 (UniProt Q7Z6I6) | inactive: 0 |
| C20orf27 (UniProt Q9GZN8) | inactive: 0 |
| ARHGAP32 (UniProt A7KAX9) | active: 1 |
| BIRC2 (UniProt Q13490) | inactive: 0 |
| ASNSD1 (UniProt L0R819) | inactive: 0 |
| CALCOCO1 (UniProt Q9P1Z2) | inactive: 0 |
| ARL6 (UniProt Q9H0F7) | active: 1 |
| ATXN7L3 (UniProt Q14CW9) | inactive: 0 |
| C8orf76 (UniProt Q96K31) | inactive: 0 |
| BICD1 (UniProt Q96G01) | active: 1 |
| ATG101 (UniProt Q9BSB4) | inactive: 0 |
| ATF7 (UniProt P17544) | inactive: 0 |
| C9orf142 (UniProt Q9BUH6) | inactive: 0 |
| ATP6V1C1 (UniProt P21283) | inactive: 0 |
| ARHGAP4 (UniProt P98171) | active: 1 |
| C14orf159 (UniProt Q7Z3D6) | inactive: 0 |

Copied from the list:
Under dose-dependent thermal stabilisation call, BCAT1 (UniProt P54687) has active: 1
Under dose-dependent thermal stabilisation call, ATG2A (UniProt Q2TAZ0) has inactive: 0
Under dose-dependent thermal stabilisation call, C20orf27 (UniProt Q9GZN8) has inactive: 0
